Only a part is listed here, and it is no random draw. Single values of this set are uncertain.
Compound: COC(=O)/C=C/c1ccccc1 [methyl cinnamate]
Test: log2 ratio of iodoacetamide-alkyne labeling of the cysteine site, DMSO over compound (competition); higher = stronger covalent engagement of the cysteine by the compound, active = 1 or more
Conditions: 500 µM; treatment time 1 h; system: HEK293T cell lysate
Procedure, shortened: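 Electrophile (500 µM) or vehicle was added to HEK293T lysate (2 mg/mL) for 1 h at ambient temperature before iodoacetamide alkyne labelling (1 h) and click coupling to sCIP-TMT reagents. After pooling, overnight trypsin digestion at 37 °C, streptavidin enrichment and acid elution, peptides were measured by Orbitrap Eclipse LC-MS/MS with FAIMS and quantified in FragPipe. Each cysteine's log2 competition ratio compares mean control-channel with mean compound-channel reporter intensity, control over compound. Data came from duplicate channels across three replicates, excluding cysteines quantified in only one replicate.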

Sequences of proteins named here, by UniProt entry; tags and fusion partners are left off. A change or cut given only in a name is not applied to a line headed by its entry.
UniProt A6NHR9: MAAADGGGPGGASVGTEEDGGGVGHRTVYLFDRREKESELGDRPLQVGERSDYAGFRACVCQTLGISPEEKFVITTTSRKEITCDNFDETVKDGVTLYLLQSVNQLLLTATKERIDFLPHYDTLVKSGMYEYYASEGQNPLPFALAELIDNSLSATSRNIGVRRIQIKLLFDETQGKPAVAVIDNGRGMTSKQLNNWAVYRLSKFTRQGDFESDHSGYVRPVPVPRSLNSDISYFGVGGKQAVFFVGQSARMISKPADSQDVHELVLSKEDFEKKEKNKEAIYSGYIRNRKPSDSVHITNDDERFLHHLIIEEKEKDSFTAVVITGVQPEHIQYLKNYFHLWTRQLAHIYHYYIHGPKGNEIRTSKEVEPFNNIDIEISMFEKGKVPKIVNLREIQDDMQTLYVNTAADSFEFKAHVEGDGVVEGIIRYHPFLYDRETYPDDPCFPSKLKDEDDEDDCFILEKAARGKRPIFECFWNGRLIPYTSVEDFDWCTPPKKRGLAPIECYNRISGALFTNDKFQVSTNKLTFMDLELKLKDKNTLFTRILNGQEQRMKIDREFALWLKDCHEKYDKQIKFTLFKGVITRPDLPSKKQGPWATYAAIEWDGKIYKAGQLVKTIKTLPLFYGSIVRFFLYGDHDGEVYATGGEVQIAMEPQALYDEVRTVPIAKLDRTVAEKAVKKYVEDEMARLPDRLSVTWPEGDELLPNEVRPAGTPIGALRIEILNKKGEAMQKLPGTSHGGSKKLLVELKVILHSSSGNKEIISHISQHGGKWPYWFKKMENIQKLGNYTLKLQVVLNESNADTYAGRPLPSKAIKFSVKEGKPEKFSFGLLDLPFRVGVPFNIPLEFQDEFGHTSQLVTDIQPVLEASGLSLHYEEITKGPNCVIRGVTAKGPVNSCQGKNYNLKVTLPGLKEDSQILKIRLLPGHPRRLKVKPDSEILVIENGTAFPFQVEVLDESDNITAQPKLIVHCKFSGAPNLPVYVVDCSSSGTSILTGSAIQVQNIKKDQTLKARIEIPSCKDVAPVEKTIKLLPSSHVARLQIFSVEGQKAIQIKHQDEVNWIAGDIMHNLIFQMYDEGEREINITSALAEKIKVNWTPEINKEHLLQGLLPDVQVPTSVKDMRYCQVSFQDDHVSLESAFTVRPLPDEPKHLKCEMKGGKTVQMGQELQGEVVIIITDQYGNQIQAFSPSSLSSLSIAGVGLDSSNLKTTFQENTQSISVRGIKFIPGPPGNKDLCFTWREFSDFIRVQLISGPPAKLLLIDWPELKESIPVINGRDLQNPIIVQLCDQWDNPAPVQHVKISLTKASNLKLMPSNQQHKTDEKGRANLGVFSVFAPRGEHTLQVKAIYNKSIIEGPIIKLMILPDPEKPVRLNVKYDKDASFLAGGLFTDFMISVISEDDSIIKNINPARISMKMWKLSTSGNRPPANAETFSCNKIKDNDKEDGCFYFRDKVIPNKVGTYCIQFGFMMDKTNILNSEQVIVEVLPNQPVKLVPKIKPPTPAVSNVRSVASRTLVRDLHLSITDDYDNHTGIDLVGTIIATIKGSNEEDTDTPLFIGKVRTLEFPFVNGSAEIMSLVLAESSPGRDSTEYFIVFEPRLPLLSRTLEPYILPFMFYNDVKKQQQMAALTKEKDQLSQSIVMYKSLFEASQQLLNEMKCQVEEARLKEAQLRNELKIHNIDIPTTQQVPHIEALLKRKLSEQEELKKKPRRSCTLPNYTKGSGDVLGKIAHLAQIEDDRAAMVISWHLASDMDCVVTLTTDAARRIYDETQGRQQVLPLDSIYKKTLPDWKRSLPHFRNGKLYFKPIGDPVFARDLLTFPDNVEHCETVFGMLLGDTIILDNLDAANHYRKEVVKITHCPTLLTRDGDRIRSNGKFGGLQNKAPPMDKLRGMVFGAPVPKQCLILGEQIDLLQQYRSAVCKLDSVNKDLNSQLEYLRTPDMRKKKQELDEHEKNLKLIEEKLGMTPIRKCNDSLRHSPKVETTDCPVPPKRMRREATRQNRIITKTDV
UniProt A6NFI3: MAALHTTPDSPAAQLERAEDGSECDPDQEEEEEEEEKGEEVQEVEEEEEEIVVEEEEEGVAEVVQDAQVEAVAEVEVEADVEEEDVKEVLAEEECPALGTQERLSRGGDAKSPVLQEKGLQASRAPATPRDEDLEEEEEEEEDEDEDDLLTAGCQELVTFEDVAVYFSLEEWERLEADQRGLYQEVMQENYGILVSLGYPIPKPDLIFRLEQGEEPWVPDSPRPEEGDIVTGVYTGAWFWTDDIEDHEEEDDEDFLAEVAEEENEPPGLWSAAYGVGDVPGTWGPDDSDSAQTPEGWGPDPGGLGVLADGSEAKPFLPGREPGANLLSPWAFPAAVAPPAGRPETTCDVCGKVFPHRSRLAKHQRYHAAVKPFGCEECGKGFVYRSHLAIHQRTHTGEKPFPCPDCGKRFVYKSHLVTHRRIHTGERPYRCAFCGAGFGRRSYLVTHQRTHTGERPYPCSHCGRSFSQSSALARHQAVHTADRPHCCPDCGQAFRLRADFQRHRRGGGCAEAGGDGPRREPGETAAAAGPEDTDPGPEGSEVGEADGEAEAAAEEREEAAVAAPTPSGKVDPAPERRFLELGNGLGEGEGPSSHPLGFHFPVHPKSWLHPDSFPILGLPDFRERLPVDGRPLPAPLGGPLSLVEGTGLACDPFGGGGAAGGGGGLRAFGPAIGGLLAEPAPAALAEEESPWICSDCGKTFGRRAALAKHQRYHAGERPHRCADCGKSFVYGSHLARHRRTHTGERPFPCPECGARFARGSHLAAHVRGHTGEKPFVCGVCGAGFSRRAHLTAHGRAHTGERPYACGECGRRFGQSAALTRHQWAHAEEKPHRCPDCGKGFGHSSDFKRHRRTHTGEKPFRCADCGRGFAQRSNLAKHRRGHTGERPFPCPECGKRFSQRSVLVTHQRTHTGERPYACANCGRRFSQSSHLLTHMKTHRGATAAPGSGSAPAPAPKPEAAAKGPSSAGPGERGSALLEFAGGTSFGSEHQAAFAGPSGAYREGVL
UniProt A6NDU8: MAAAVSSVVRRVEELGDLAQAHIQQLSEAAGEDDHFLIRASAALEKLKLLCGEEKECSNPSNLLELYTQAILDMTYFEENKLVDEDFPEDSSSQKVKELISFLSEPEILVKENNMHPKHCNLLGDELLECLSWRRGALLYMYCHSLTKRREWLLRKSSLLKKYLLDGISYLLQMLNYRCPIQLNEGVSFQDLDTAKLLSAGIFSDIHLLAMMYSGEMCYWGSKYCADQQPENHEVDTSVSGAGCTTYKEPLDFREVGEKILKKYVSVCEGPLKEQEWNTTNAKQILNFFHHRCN
UniProt A2RUB1: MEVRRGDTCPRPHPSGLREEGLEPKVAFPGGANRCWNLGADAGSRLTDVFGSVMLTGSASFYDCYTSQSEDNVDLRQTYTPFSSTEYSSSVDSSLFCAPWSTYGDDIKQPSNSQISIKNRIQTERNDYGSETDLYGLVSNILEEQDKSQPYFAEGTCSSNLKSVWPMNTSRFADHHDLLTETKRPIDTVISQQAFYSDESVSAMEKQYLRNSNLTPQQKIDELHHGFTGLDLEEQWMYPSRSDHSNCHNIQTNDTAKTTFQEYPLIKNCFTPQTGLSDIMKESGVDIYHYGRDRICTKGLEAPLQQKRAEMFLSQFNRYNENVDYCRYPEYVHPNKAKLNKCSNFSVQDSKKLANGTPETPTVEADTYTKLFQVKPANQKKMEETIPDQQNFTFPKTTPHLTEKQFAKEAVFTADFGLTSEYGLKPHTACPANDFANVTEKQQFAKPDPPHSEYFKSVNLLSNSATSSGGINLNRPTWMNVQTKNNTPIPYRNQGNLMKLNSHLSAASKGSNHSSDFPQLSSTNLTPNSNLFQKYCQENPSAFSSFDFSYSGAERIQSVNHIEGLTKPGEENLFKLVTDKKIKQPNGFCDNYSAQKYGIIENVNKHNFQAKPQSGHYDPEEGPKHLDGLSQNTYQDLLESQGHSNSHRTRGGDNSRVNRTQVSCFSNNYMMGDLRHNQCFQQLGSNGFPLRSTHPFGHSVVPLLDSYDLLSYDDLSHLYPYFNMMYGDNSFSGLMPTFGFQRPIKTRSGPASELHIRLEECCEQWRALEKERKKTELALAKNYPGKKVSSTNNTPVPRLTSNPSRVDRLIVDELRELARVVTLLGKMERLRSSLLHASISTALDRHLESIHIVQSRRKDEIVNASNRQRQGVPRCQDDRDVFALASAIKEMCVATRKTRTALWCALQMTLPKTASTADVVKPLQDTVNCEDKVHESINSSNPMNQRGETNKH
UniProt A0JNW5: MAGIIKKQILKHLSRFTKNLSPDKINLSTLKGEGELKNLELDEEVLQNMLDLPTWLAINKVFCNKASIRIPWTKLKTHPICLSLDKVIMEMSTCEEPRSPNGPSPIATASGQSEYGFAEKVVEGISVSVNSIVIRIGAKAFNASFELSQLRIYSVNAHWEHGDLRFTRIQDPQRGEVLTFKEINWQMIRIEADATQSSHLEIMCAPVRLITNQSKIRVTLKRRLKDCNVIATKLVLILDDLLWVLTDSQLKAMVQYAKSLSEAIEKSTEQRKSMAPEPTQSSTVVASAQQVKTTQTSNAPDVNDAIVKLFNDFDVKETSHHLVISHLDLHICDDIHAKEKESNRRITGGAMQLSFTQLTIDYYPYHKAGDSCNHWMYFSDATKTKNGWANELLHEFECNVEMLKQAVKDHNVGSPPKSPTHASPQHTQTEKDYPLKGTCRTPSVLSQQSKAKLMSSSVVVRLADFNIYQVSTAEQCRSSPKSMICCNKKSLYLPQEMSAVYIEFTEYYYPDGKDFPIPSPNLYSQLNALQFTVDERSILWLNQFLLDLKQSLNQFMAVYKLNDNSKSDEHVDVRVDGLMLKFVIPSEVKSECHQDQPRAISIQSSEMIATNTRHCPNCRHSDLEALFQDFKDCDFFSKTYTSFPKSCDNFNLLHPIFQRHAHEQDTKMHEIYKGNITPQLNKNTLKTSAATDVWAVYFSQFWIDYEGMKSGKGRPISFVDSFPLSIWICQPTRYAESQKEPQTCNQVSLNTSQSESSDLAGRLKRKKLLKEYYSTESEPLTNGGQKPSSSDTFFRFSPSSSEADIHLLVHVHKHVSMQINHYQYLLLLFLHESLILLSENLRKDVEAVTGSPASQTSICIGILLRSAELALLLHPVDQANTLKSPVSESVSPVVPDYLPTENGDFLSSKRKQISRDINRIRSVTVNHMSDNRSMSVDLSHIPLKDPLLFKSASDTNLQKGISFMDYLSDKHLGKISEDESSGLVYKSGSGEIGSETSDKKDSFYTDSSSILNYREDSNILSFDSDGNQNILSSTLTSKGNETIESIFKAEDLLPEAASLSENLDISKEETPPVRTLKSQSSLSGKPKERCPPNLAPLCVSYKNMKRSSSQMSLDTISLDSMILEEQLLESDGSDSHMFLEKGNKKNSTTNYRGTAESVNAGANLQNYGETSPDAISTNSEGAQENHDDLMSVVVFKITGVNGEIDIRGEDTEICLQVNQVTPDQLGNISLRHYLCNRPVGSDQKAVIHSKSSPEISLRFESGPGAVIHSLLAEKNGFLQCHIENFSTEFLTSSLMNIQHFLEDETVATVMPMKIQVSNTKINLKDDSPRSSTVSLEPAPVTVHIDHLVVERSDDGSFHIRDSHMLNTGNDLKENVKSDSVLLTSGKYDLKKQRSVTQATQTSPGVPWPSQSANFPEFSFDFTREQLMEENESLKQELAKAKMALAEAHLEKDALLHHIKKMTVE
UniProt A1L0T0: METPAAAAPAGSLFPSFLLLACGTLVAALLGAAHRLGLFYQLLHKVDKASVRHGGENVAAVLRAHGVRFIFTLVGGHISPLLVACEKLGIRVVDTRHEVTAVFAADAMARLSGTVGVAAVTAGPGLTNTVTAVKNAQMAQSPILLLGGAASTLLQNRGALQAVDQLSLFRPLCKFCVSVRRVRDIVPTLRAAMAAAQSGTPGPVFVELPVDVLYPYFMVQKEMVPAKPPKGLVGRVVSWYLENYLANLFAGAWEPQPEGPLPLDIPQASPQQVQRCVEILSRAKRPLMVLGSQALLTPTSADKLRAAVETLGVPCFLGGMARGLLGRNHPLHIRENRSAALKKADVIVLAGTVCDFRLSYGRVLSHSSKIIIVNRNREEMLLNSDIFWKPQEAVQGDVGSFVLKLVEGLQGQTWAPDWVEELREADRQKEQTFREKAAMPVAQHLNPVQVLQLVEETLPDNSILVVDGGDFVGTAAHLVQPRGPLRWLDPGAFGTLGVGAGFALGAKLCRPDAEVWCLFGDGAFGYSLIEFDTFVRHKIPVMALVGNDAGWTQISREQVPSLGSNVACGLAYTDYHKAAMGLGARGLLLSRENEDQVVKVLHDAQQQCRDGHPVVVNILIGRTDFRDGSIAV

log2 ratio of iodoacetamide-alkyne labeling, inactive:
SMCHD1 C1917 (UniProt A6NHR9) 0.18
CNOT1 C1541 (UniProt A5YKK6) 0.213
A0AVT1_C546 0.00296
UniProt A0MZ66_C565 0.288
ZNF316 C650 (UniProt A6NFI3) 0.0508
SMCHD1 C1856 (UniProt A6NHR9) 0.373
CNOT1 C219 (UniProt A5YKK6) 0.227
A0AVT1_C721 -0.0149
C5orf51 C179 (UniProt A6NDU8) 0.29
UniProt A2RUB1_C664 0.307
UniProt A2RUB1_C269 0.0685
UHRF1BP1L C647 (UniProt A0JNW5) 0.123
ILVBL C568 (UniProt A1L0T0) 0.272
SMCHD1 C1899 (UniProt A6NHR9) 0.013
SMCHD1 C492 (UniProt A6NHR9) 0.144

Reprinted from above for reference:
log2 ratio of iodoacetamide-alkyne labeling, inactive:
A0AVT1_C721 -0.0149
C5orf51 C179 (UniProt A6NDU8) 0.29

Source: the supplement of paper PMC11006884
